Reference: patent US10874684B2, “Liponucleotide-based therapy for ARDS” (Ohio State Innovation Foundation, priority 2016, dated 2020)

Test system: mock-inoculated mice (virus diluent)
Settings: day 6, CDP-choline 100 μg/mouse i.p.

## C[N+](C)(C)CCOP(=O)(O)OP(=O)(O)OC[C@H]1O[C@@H](n2ccc(N)nc2=O)C(O)C1O (some centres unmarked) [CDP-CHO, Cytidine diphosphate-choline]
  HR (bpm): 730 ± 10 bpm
  SaO2 (%): 99.0 ± 0.2%
